# Measurements taken from PubChem BioAssay AID588497 (NMMLSC, 2011).
# About 780 (0.22%) of roughly 360,000 compounds were called active. Inconclusive results, whose numbers are uncertain, are shown with a selection of clear calls. No stated cut-off is given here; in the data, active means inhibition above about 35% (passing the limit was not always enough); inconclusive means no clear call, values can overlap the other calls.
# Test system: Botulinum neurotoxin type F light chain protease (Clostridium botulinum)
# Experiment: BoNT/F light chain protease inhibitors, primary screen, biochemical, flow cytometry, MLPCN library (AID 588497); further: plate controls were buffer without enzyme for full effect and enzyme alone for no effect
# Conditions: Multiplex microsphere protease cleavage assay, at 10 µM, active compounds read high
row,Structure (SMILES),inhibition
1,CCOC(=O)c1c(NC(=S)Nc2ccccc2)sc2c1CCCCC2,inactive: -4.9%
2,CCOC(=O)C1=C(c2ccccc2)NC(=O)NC1c1ccsc1 (stereo not given),inconclusive: 21.5%
3,Cc1cc(NS(=O)(=O)c2ccc(NC(NC(=O)C(C(F)(F)F)C(F)(F)F)(C(F)(F)F)C(F)(F)F)cc2)no1,inconclusive: -39.2%
4,COc1ccc(NC(=O)CCN2CCN(c3ccccc3F)CC2)c(OC)c1,inconclusive: 1.1%
5,COC(=O)c1ccc(S(=O)(=O)NCc2ccco2)o1,inconclusive: -113%
6,CC(C)CCN(C(=O)c1csnn1)C(C(=O)NC1CCCC1)c1ccc(F)cc1 (stereo not given),active: 91.1%
7,O=C(Nc1ccccc1F)c1ccc(CN2CCc3ccccc3C2)cc1,inconclusive: -1.5%
8,OCCC1CN(Cc2ccc(F)cc2)CCN1CCCc1ccccc1 (stereo not given),inconclusive: 42.6%
9,COc1cccc(C(=O)Nc2ccc(C(=O)NCC3CCCO3)cc2)c1 (stereo not given),inconclusive: 2%
10,Cc1cccc(C)c1NC(=O)CN(C)C(=O)c1cccc(S(=O)(=O)N2CCN(c3ccc(F)cc3)CC2)c1,inconclusive: -0.6%
11,CC(C)Cc1ccc(C(C)C(N)=NCCc2ccccc2)cc1 (stereo not given),inconclusive: 0.8%
12,CCOC(=O)c1ccc(S(=O)(=O)NC2CC2)cc1,inactive: 13.8%
13,CCN(CC)NC(=S)Nc1ccccc1,inactive: 1.5%
14,CNS(=O)(=O)c1cccc(C(=O)OCC(=O)NCCCc2ccccc2)c1,inconclusive: -35.6%
15,Cc1cc(OCC(=O)N2CCC(C(=O)O)CC2)c2c3c(c(=O)oc2c1)CCC3,inactive: 2.9%
16,COc1ccccc1NC(=O)CCNC(=O)c1ccc(C)cc1,inconclusive: 14%
17,CC1=CC2=NC(=O)/C(=C/c3cccn3Cc3ccccc3)C(=N)N2O1,inconclusive: -21.7%
18,CCOC(=O)C1CCN(C(=O)c2cc(COc3ccc(F)cc3F)on2)CC1,inconclusive: 5.4%
19,CCOC(=O)C1CCCN(S(=O)(=O)Cc2ccccc2Cl)C1 (stereo not given),inconclusive: -7.6%
20,Cc1ccc(OCCC(=O)OCC(=O)Nc2ccc(F)cc2)cc1,inconclusive: 8.7%
21,COc1ccc(C(=O)OCC(=O)C(C)(C)C)cc1S(=O)(=O)N(C)CCc1cccnc1,inconclusive: -8.9%
22,CSc1cnc2c(N)nc(N(C)C)nc2n1,active: 48.9%
23,COc1cc(C2c3c(oc4ccccc4c3=O)C(=O)N2Cc2ccco2)ccc1O (stereo not given),inactive: 5.2%
24,O=C(CN(C(=O)c1csnn1)c1ccc(Cl)cc1)NCCc1ccccc1,inactive: 10.3%
25,FC(F)(F)c1ccc(-c2nnc(-c3cccnc3)o2)cc1,inconclusive: -1.1%

# 3 compounds from above, sorted by formula weight, largest number first.
row,Structure (SMILES),inhibition
18,CCOC(=O)C1CCN(C(=O)c2cc(COc3ccc(F)cc3F)on2)CC1,inconclusive: 5.4%
19,CCOC(=O)C1CCCN(S(=O)(=O)Cc2ccccc2Cl)C1 (stereo not given),inconclusive: -7.6%
11,CC(C)Cc1ccc(C(C)C(N)=NCCc2ccccc2)cc1 (stereo not given),inconclusive: 0.8%
